Reference: PubChem BioAssay AID248 (DTP/NCI, 2004)
The list is a part of this screen's results and no random one: it gathers tests that were run many times, whatever their T/C, doses with no T/C, and many T/C values between a quarter and a half above the control. Further doses and runs are listed elsewhere. T/C: endpoint of the treated group in % of that of the vehicle group. Some entries give survivors of the animals treated and no T/C: the source files T/C as zero there, which appears to mark a toxic dose or a test without result, not a measured value. Some doses without a T/C left all or most animals alive at the check, yet need not have been tolerated: survival well below the control is almost never listed, so the zero probably covers shortened survival too. Counts of survivors are from the toxicity check (mostly the fifth day) where no day follows; animals may have died later. Schedules are NCI's codes, taken here to give the interval after Q, in days (D) or hours (H), and the number of doses after X. Some molecules as drawn cover several salts, stereoisomers or complexes of the source; a dose is that of the sample tested. Where survival is the endpoint, this PubChem deposit counts one and a half times the control or more as active, and values a quarter to a half above the control carry no call in these data; other NCI protocols may use other cut-offs. Some entries were tested several times; the results are listed from low to high. Some schedule codes hold Z or #, which are not explained here. Some T/C values are followed by the survivors on the day toxicity was checked, most often the fifth; where none is given, no animal had died by that day.

Tested on: L1210 leukemia ip in BDF1 mice, survival T/C
Experiment: NCI In Vivo Anticancer Drug Screen. Data for tumor model L1210 Leukemia (intraperitoneal) in B6D2F1 (BDF1) mice
Details: T/C endpoint: mean survival time, higher T/C = longer survival
[1] = dose: 400.0 mg/kg/injection, schedule: Q01DX001 (ip), vehicle: carboxymethylcellulose (CMC)
[2] = dose: 200.0 mg/kg/injection, schedule: Q01DX005 (ip), vehicle: saline
[3] = dose: 200.0 mg/kg/injection, schedule: Q04DX003 (ip), vehicle: saline
[4] = dose: 400.0 mg/kg/injection, schedule: Q04DX003 (ip), vehicle: Klucel (hydroxypropylcellulose) (HPC)
[5] = dose: 400.0 mg/kg/injection, schedule: Q04DX003 (ip), vehicle: saline
[6] = dose: 100.0 mg/kg/injection, schedule: Q01DX001 (ip), vehicle: saline
[7] = dose: 200.0 mg/kg/injection, schedule: Q01DX009 (ip), vehicle: saline with Tween-80
[8] = dose: 400.0 mg/kg/injection, schedule: Q04DX002 (ip), vehicle: Klucel (hydroxypropylcellulose) (HPC)
[9] = dose: 100.0 mg/kg/injection, schedule: Q04DX003 (ip), vehicle: saline
[10] = dose: 100.0 mg/kg/injection, schedule: Q04DX003 (ip), vehicle: saline with Tween-80
[11] = dose: 200.0 mg/kg/injection, schedule: Q04DX002 (ip), vehicle: saline with Tween-80
[12] = dose: 400.0 mg/kg/injection, schedule: Q04DX002 (ip), vehicle: saline with Tween-80

FC(Cl)C(F)(F)Br (stereo not drawn)
survivor count (dose: 600.0 mg/kg/injection, schedule: Q01DX005 (ip), vehicle: saline): 6 of 6 | survivor count (dose: 800.0 mg/kg/injection, schedule: Q01DX001 (ip), vehicle: acetone): 3 of 6 | survivor count (dose: 1200.0 mg/kg/injection, schedule: Q01DX001 (ip), vehicle: acetone): 1 of 6 | survivor count (dose: 1600.0 mg/kg/injection, schedule: Q01DX001 (ip), vehicle: acetone): 1 of 6

O=C(O)c1ccc(N=Cc2ccc(N(CCCl)CCCl)cc2)cc1O
survivor count [1]: 2 of 4

COC(=N)c1nn(C2OC(CO)C(O)C2O)c2ncnc(N)c12 (stereo not drawn)
T/C (dose: 100.0 mg/kg/injection, schedule: Q01DX005 (ip), vehicle: saline): 136 % of control | T/C [2]: 127 % of control

Cc1cc(C(=O)NC(CCC(=O)O)C(=O)O)cc(C)c1N(C)Cc1cnc2nc(N)nc(N)c2n1 (stereo not drawn)
T/C (dose: 6.25 mg/kg/injection, schedule: Q01DX009 (ip), vehicle: saline): 143 % of control | T/C (dose: 6.25 mg/kg/injection, schedule: Q01DX009 (ip), vehicle: sodium bicarbonate): 126 % of control | T/C (dose: 12.5 mg/kg/injection, schedule: Q01DX009 (ip), vehicle: sodium bicarbonate): 146 % of control [9 of 10 alive] | T/C (dose: 25.0 mg/kg/injection, schedule: Q01DX009 (ip), vehicle: saline): 125 % of control | T/C (dose: 25.0 mg/kg/injection, schedule: Q01DX009 (ip), vehicle: sodium bicarbonate): 136 % of control | survivor count (dose: 50.0 mg/kg/injection, schedule: Q01DX009 (ip), vehicle: saline): 5 of 6

CC(CN(C)C)C(=O)c1ccccc1 (stereo not drawn)
survivor count (dose: 200.0 mg/kg/injection, schedule: Q04DX003 (ip), vehicle: Klucel (hydroxypropylcellulose) (HPC)): 3 of 6 | survivor count [3]: 2 of 6 | survivor count [4]: 0 of 6 | survivor count [5]: 0 of 6

Cc1c(NC(=O)Nc2ccccc2F)c(=O)n(-c2ccccc2)n1C
survivor count [6]: 6 of 6 | survivor count (dose: 200.0 mg/kg/injection, schedule: Q01DX009 (ip), vehicle: acetone): 6 of 6 | survivor count (dose: 400.0 mg/kg/injection, schedule: Q01DX009 (ip), vehicle: acetone): 6 of 6

CNc1nc(N(C)C)nc(N(C)C)n1
survivor count (dose: 300.0 mg/kg/injection, schedule: Q01DX001 (ip), vehicle: saline): 2 of 6

CCn1cnc2c(SC(C)C)ncnc21
T/C (dose: 125.0 mg/kg/injection, schedule: Q01DX Z (ip), vehicle: carboxymethylcellulose (CMC)): 125 % of control

CN(C)c1ccc(N=C(C#N)C#N)cc1
survivor count (dose: 300.0 mg/kg/injection, schedule: Q01DX001 (ip), vehicle: other): 4 of 6

Clc1ccc(C=NCCN=Cc2ccc(Cl)c(Cl)c2)cc1Cl
survivor count (dose: 100.0 mg/kg/injection, schedule: Q01DX009 (ip), vehicle: saline with Tween-80): 6 of 6

O=S(=O)(OC1CCCCC1Br)c1ccc(Br)cc1 (stereo not drawn)
survivor count [7]: 3 of 3

CCOC(=O)Nc1cc(Cl)c2n[nH]nc2n1
survivor count [2]: 2 of 4 | survivor count (dose: 400.0 mg/kg/injection, schedule: Q01DX005 (ip), vehicle: saline): 0 of 4

CSc1nncc(-c2cnnc(SC)n2)n1
survivor count [8]: 1 of 3

CCCCCc1c2c(c(CCCCC)c3c1-c1cccc4cccc-3c14)-c1ccc(C)cc1C2
survivor count (dose: 200.0 mg/kg/injection, schedule: Q01DX001 (ip), vehicle: saline with Tween-80): 3 of 3

NCC(=O)CCS(=O)(=O)c1ccc(Cl)cc1
survivor count [9]: 0 of 6 | survivor count [3]: 1 of 6 | survivor count [5]: 0 of 6

O=C1C(=O)c2ccccc2C(O)=C1CCCCCCCCCC[S+](CCO)CCO
survivor count (dose: 400.0 mg/kg/injection, schedule: Q01DX001 (ip), vehicle: other): 3 of 6

O=C(C=C(C(F)(F)F)C(F)(F)F)c1ccc(Cl)c2ccccc12
survivor count (dose: 50.0 mg/kg/injection, schedule: Q01DX009 (ip), vehicle: saline with Tween-80): 1 of 6 | survivor count [10]: 3 of 6

CCCCCCCC[Se](=O)O
survivor count (dose: 40.0 mg/kg/injection, schedule: Q01DX001 (ip), vehicle: carboxymethylcellulose (CMC)): 0 of 4 | survivor count (dose: 50.0 mg/kg/injection, schedule: Q01DX001 (ip), vehicle: carboxymethylcellulose (CMC)): 0 of 4 | survivor count (dose: 80.0 mg/kg/injection, schedule: Q01DX001 (ip), vehicle: carboxymethylcellulose (CMC)): 0 of 4 | survivor count (dose: 100.0 mg/kg/injection, schedule: Q01DX001 (ip), vehicle: carboxymethylcellulose (CMC)): 0 of 4 | survivor count (dose: 200.0 mg/kg/injection, schedule: Q01DX001 (ip), vehicle: carboxymethylcellulose (CMC)): 0 of 4 | survivor count [1]: 0 of 4

CCCCCCCCCCCCC1CCCC(C)C1 (stereo not drawn)
survivor count [7]: 6 of 6

Cc1ccc(S(=O)(=O)OCC23CCC2(COS(=O)(=O)c2ccc(C)cc2)COC3)cc1 (stereo not drawn)
survivor count (dose: 150.0 mg/kg/injection, schedule: Q01DX009 (ip), vehicle: saline): 6 of 6

CCN(C)CCC(CC=C(C)C)(C(N)=O)c1cccc2ccccc12 (stereo not drawn)
survivor count (dose: 50.0 mg/kg/injection, schedule: Q04DX002 (ip), vehicle: saline): 2 of 3

CCCCS(=O)(=O)F
survivor count [11]: 0 of 3 | survivor count [12]: 0 of 3

CCOC(=O)/C(=C\c1cccc2ccccc12)c1ccncc1
survivor count (dose: 400.0 mg/kg/injection, schedule: Q01DX009 (ip), vehicle: saline with Tween-80): 6 of 6

O=[N+]([O-])c1ccc(C(Cl)S(=O)(=O)c2ccccc2)cc1 (stereo not drawn)
T/C [8]: 129 and 136 % of control

O=C(O)CCC1(c2ccccc2)CCCC1=O (stereo not drawn)
survivor count (dose: 200.0 mg/kg/injection, schedule: Q01DX009 (ip), vehicle: water): 1 of 6

CC(Cc1ccccc1)NC(=O)CCNNC(=O)c1ccncc1 (stereo not drawn)
survivor count (dose: 25.0 mg/kg/injection, schedule: Q04DX003 (ip), vehicle: Klucel (hydroxypropylcellulose) (HPC)): 4 of 4 | survivor count [4]: 4 of 4

Cc1ccc(CCN)cc1C
survivor count [3]: 1 of 6 | survivor count [5]: 0 of 6

CNc1c(C)cc(C)c(NC)c1C
survivor count [11]: 2 of 3 | survivor count [12]: 0 of 3

O=C1CCc2c1cc(O)c1ccc(S(=O)(=O)O)cc21
survivor count (dose: 80.0 mg/kg/injection, schedule: Q01DX001 (ip), vehicle: saline): 2 of 6

C[N+](C)(C)Cc1cccc([N+](=O)[O-])c1
survivor count [6]: 0 of 4 | survivor count (dose: 200.0 mg/kg/injection, schedule: Q01DX001 (ip), vehicle: saline): 0 of 4 | survivor count (dose: 400.0 mg/kg/injection, schedule: Q01DX001 (ip), vehicle: saline): 0 of 4

Cc1cc2c(N)[nH]c(=O)nc2s1
survivor count (dose: 400.0 mg/kg/injection, schedule: Q04DX003 (ip), vehicle: water): 2 of 6

N#Cc1nnn(-c2ccccc2)n1
survivor count (dose: 100.0 mg/kg/injection, schedule: Q01DX009 (ip), vehicle: acetone): 0 of 6 | survivor count (dose: 200.0 mg/kg/injection, schedule: Q04DX003 (ip), vehicle: acetone): 0 of 6 | survivor count (dose: 400.0 mg/kg/injection, schedule: Q01DX001 (ip), vehicle: acetone): 0 of 6

CC(=O)Oc1ccc2c(c1)C(=O)CCCCCC(=O)O2
T/C [10]: 127 % of control

O=C(/C=N/O)/C=N/O (tested in a mixture with another compound)
survivor count (dose: 50.0 mg/kg/injection, schedule: Q04DX003 (ip), vehicle: saline): 2 of 6 | survivor count [9]: 2 of 6 | survivor count [3]: 0 of 6 | survivor count [5]: 0 of 6
